Measurements as given in US7629318B2, “Immunosuppressant compounds, methods and uses related thereto” (priority 2002, dated 2009).
Not every detail of the peptide structures is certain; ends, links or a residue may be inferred. Numbered stars: 1 amine (or outer) side, 2 acyl side, 3 side chain; on linkers, the order of the positions; unused ones are H or OH. Square brackets hold non-standard residues; d marks the D form. Peptide text beside a SMILES is read from it. * marks the point of attachment. ξ: configuration not given here. Gly(1-amidinopiperidin-4-yl) = N=C(N)N1CCC([C@H](N)C(=O)O)CC1; X1 = CC(C)c1oc([C@H](CO)N[*:1])nc1C(=O)[*:2]; Pro(3R-Ph) = O=C(O)[C@H]1NCC[C@@H]1c1ccccc1; Tic = O=C(O)[C@@H]1Cc2ccccc2CN1; Cha = N[C@@H](CC1CCCCC1)C(=O)O; ξDisc = O=C(O)C1NCc2ccccc21; X4 = OCCOCCN(CCc1ccccc1)*; Nle = CCCC[C@H](N)C(=O)O

Columns and labels:
[1] = tested on: T-cell proliferation, DR14-LN; settings: maximal inhibition
[2] = tested on: T-cell proliferation, lymph node cells of chimeric 0401-IE transgenic mice; settings: maximal inhibition
Experimental: The compounds were tested as follows to inhibit the proliferative T cell response of antigen-primed lymph node cells from mice carrying a chimeric mouse-human class II transgene with an RA-associated peptide binding site, and lack murine class II molecules (Muller et al., 1990; Woods et al., 1994; Current Protocols in Immunology, Vol. 2, 7.21; Ito et al., 1996). Here, the immunization takes place in vivo, but the inhibition and readout are ex vivo. […] These mice lack murine MHC class II, and thus, all Th responses are channelled through a single human RA-associated MHC class II molecule (Ito et al. 1996). These transgenic mice represent a model for testing human class II antagonists.
1.5×10^5 cells are incubated in 0.2 ml wells of 96-well tissue culture plates in the presence of ovalbumin (30 μg per well—half-maximal stimulatory concentration) and a dilution series of the compound under test (from around 0.1 to 200 uM) in serum free HL-1 medium containing 2 mM L-glutamine and 0.1 g/l Kanamycin for three days. Antigen specific proliferation is measured by 3H-methyl-thymidine (1 μCi/well) incorporation during the last 16 h of culture (Falcioni et al., 1999). Cells are harvested, and 3H incorporation measured using a scintillation counter (TopCount, Wallac Finland).

SMILES: CCCC[C@H](NC(=O)[C@@H]1Cc2ccccc2CN1C(=O)[C@H](CCCNC(=N)N)NC(=O)[C@H](CC1CCCCC1)NC(C)=O)C(=O)N(CCOCCO)CCc1ccccc1 [Compound P88] (Ac-[Cha]R[Tic][Nle]-X4)
- Immunsupressive assays DR14-LN (Max) % Inhibition [1]: 100%
- Immunsupressive assays DR4-LN (Max) % Inhibition [2]: 100%

SMILES: CCCC[C@H](NC(=O)C1c2ccccc2CN1C(=O)[C@@H](NC(=O)[C@H](CC1CCCCC1)NC(C)=O)C1CCN(C(=N)N)CC1)C(=O)N1CC[C@H](c2ccccc2)[C@H]1C(=O)N[C@@H](CO)c1nc(C(=O)N(C)C)c(C(C)C)o1 (stereo partly drawn) [Compound P81-1] (Ac-[Cha][Gly(1-amidinopiperidin-4-yl)][ξDisc][Nle][Pro(3R-Ph)][X1]-NMe2)
- Immunsupressive assays DR14-LN (Max) % Inhibition [1]: 112%
- Immunsupressive assays DR4-LN (Max) % Inhibition [2]: 99%

SMILES: CCCC[C@H](NC(=O)C1c2ccccc2CN1C(=O)[C@@H](NC(=O)[C@H](CC1CCCCC1)NC(C)=O)C1CCN(C(=N)N)CC1)C(=O)N(C)Cc1ccccc1 (single isomer, unassigned) [Compound P78-1]
- Immunsupressive assays DR4-LN (Max) % Inhibition [2]: 103%

SMILES: CSCC[C@H](NC(=O)[C@@H]1Cc2ccccc2CN1C(=O)[C@H](CCCNC(=N)N)NC(=O)[C@H](CC1CCCCC1)NC(C)=O)C(=O)N1CC[C@H](c2ccccc2)[C@H]1C(=O)N[C@@H](CO)c1nc(C(=O)N(C)C)c(C(C)C)o1 [Compound P33, Ac-Cha-Arg-Tic-Met-βPhPro-[S(oxaz)L]-NMe2] (Ac-[Cha]R[Tic]M[Pro(3R-Ph)][X1]-NMe2)
- Immunsupressive assays DR14-LN (Max) % Inhibition [1]: 101%
- Immunsupressive assays DR4-LN (Max) % Inhibition [2]: 100%
